Data as given in PubChem BioAssay AID1259261 (Sanger Institute, 2017).
Screen: 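Kinase knock-downs that kill colorectal cancer cells or boost targeted drugs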 (primary screen). Cell system: HCC2998 human colorectal cancer cells. Reagents: siRNA pool against human genes. Conditions: anchor drugs BYL719 1 µM, cetuximab 5 µg/ml or trametinib 10 nM, each compared with DMSO vehicle. Detection: 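Cell viability relative to non-targeting siRNA, averaged over replicates, with robust z-score for siRNA alone and synergy scores with each anchor drug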. Scale: viability z-score, knock-down alone: higher = more viable cells than controls; viability fraction, knock-down alone: higher = more viable cells; synergy score with BYL719: higher = stronger combined killing with BYL719; synergy score with trametinib: higher = stronger combined killing with trametinib; synergy score with cetuximab: higher = stronger combined killing with cetuximab. Active means: 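a knock-down is called essential if its robust z-score without drug is under -3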. Meaning of the calls: active = essential; inactive = no change.
The whole screen tested 794 reagents; shown is a part drawn at random. 10 of all reagents (1.3%) were called active. 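Calls reflect knock-down alone without drug; synergy scores with BYL719, cetuximab or trametinib do not affect calls.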 A number with no mark means an inactive call. No viability above 1 is reported: the scale is capped. Not given: the amount of reagent, the time to read-out.

no.	target gene	viability z-score, knock-down alone	viability fraction, knock-down alone	synergy score with BYL719	synergy score with trametinib	synergy score with cetuximab
1	PIP5KL1 (GeneID 138429)	1.21	1	0.0721	-0.031	-0.0432
2	NRBP2 (GeneID 340371)	-0.387	0.8	-0.0177	0.0763	0.0086
3	MAP3K2 (GeneID 10746)	-1.58	0.65	-0.208	-0.0704	0.00381
4	AKAP9 (GeneID 10142)	0.101	0.862	-0.0166	0.0289	-0.0282
5	WNK4 (GeneID 65266)	0.512	0.913	-0.043	0.00637	-0.0214
6	PIP5K1B (GeneID 8395)	0.402	0.899	0.0611	0.14	0.0543
7	MPP2 (GeneID 4355)	0.809	0.95	0.111	0.232	0.0455
8	PDK4 (GeneID 5166)	-1.51	0.659	-0.128	0.0454	-0.189
9	TSSK3 (GeneID 81629)	-0.0175	0.847	-0.0142	0.0274	-0.0853
10	SMG1 (GeneID 23049)	0.0075	0.85	-0.0619	-0.0114	-0.105
11	TESK2 (GeneID 10420)	0.214	0.876	-0.0111	-0.0486	-0.0183
12	KRAS (GeneID 3845)	-1.99	0.599	0.0238	0.0817	-0.0148
13	CDK5 (GeneID 1020)	0.84	0.954	0.0366	0.0394	0.0364
14	CDK17 (GeneID 5128)	-0.177	0.827	-0.0039	0.00878	-0.0576
15	PSKH1 (GeneID 5681)	1.01	0.975	0.0901	0.122	0.0515
16	BMAL1 (GeneID 406)	-1.36	0.678	0.0226	-0.00732	-0.145
17	ULK2 (GeneID 9706)	-0.389	0.8	-0.126	0.0171	-0.0491
18	STK10 (GeneID 6793)	1.21	1	-0.0349	0.089	-0.0432
19	LCK (GeneID 3932)	0.643	0.929	0.0237	0.119	-0.0362
20	CKM (GeneID 1158)	0.809	0.95	-0.0603	-0.115	-0.0617

2 entries from above, set out differently:
{"target gene":"BMAL1 (GeneID 406)","viability z-score, knock-down alone":-1.36,"viability fraction, knock-down alone":0.678,"synergy score with BYL719":0.0226,"synergy score with trametinib":-0.00732,"synergy score with cetuximab":-0.145}
{"target gene":"ULK2 (GeneID 9706)","viability z-score, knock-down alone":-0.389,"viability fraction, knock-down alone":0.8,"synergy score with BYL719":-0.126,"synergy score with trametinib":0.0171,"synergy score with cetuximab":-0.0491}
